Results: PubChem BioAssay
This list was built around the results that the source calls inconclusive (neither active nor inactive); the mix of calls is not that of the screen. For some of these results: A potency beside an inconclusive call is a rough fit, not a confirmed value. Active and inactive are the calls of the source. Unless noted, cut-off not given; nearly all actives show AC50 up to about 26 µM.

Protein sequences, listed by entry. Tags and fused reporters are not part of them.
UniProt P08183, whole entry, looked up: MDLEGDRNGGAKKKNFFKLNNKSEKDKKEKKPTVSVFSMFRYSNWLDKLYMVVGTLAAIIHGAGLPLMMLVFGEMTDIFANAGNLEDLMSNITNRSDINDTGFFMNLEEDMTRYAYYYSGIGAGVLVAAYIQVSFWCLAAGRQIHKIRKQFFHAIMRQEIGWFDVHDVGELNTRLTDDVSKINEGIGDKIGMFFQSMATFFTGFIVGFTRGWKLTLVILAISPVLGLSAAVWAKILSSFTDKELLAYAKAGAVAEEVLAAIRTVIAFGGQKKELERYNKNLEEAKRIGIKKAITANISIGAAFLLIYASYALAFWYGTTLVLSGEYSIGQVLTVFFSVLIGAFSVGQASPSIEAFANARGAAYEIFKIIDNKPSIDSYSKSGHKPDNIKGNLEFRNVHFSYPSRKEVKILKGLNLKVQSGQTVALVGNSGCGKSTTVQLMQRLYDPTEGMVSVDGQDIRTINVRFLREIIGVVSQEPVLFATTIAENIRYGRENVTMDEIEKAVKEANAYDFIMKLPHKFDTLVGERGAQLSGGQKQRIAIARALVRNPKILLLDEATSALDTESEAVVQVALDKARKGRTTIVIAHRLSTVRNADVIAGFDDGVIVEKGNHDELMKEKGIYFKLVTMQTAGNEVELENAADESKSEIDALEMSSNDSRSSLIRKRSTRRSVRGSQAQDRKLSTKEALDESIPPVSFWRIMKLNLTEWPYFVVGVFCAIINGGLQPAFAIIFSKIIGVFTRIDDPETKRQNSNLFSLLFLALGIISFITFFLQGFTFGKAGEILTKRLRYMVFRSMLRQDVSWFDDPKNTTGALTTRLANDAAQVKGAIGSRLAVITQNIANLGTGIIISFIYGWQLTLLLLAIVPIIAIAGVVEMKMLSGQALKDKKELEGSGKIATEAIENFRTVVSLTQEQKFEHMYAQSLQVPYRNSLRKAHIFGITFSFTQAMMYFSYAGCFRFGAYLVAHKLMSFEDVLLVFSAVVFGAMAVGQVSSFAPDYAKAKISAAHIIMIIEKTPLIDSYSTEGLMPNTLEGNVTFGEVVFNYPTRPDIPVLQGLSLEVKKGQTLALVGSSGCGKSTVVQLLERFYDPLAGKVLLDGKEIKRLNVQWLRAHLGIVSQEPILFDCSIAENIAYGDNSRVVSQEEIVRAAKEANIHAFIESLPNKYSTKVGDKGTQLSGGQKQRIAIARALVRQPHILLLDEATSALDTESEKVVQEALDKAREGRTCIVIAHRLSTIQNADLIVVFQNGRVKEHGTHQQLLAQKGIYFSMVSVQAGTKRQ

Tests used:
[1] = growth inhibition of DIPG glioma cells, dose response, cell-based, SU-DIPG-XVII, MIPE5.0, CellTiter-Glo, qHTS (AID 1347060); details: SU-DIPG-XVII viability, CellTiter-Glo ATP luminescence;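 on AC50: cells exposed to compound for 48 hours before viability readout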
[2] = growth inhibition of DIPG glioma cells, dose response, cell-based, SU-DIPG-XIII, MIPE4.0, CellTiter-Glo, qHTS (AID 1347061; cut-off not given, nearly all actives have AC50 up to about 37 µM;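 further: cells exposed to compound for 48 hours before readout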); details: SU-DIPG-XIII viability, CellTiter-Glo ATP luminescence
[3] = growth inhibition of DIPG glioma cells, dose response, cell-based, JHH-DIPG-1, MIPE4.0, CellTiter-Glo, qHTS (AID 1347062; cut-off not given, nearly all actives have AC50 up to about 27 µM;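 on AC50: cells exposed to compound for two days before readout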); details: JHH-DIPG-1 viability, CellTiter-Glo ATP luminescence
[4] = growth inhibition of DIPG glioma cells, dose response, cell-based, SU-DIPG-IV, MIPE4.0, CellTiter-Glo, qHTS (AID 1347063; cut-off not given, nearly all actives have AC50 up to about 30 µM;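 further: compound exposure lasted 48 hours before the viability readout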); details: SU-DIPG-IV viability, CellTiter-Glo ATP luminescence
[5] = growth inhibition of DIPG glioma cells, dose response, cell-based, SU-DIPG-XIII, MIPE5.0, CellTiter-Glo, qHTS (AID 1347064; cut-off not given, nearly all actives have AC50 up to about 23 µM;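 on AC50: cells exposed to compound for 48 hours before the viability read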); details: SU-DIPG-XIII viability, CellTiter-Glo ATP luminescence
[6] = viability loss in pontine glioma line – cell-based, SU-DIPG-XXV, MIPE5.0, CellTiter-Glo, qHTS, dose response (AID 1347065); details: CellTiter-Glo ATP luminescence;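 further: cells exposed to compound for 48 hours before ATP readout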
[7] = SU-DIPG-VI glioma cell viability, MIPE4.0 library, CellTiter-Glo luminescence, qHTS (AID 1347066; cut-off not given, nearly all actives have AC50 up to about 30 µM;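 further: cells exposed to compound for 48 hours before readout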); details: CellTiter-Glo ATP luminescence
[8] = JHH-DIPG-1 glioma cell viability, MIPE5.0 library, CellTiter-Glo luminescence, qHTS (AID 1347067); details: JHH-DIPG-1 glioma viability, CellTiter-Glo ATP luminescence;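 further: cells exposed to compound for 48 hours before readout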
[9] = SU-DIPG-XXV glioma cell viability, MIPE5.0 library, qHTS (AID 1347068; cut-off not given, nearly all actives have IC50 up to about 30 µM;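 further: cells exposed to compound for 48 hours before viability readout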)
[10] = target: ATP-dependent translocase ABCB1 (Homo sapiens) (UniProt P08183); assay: MDR1 (ABCB1) efflux transporter inhibition, cell-based (AID 377; in the data active means fluorescence slope change above about 50%; inconclusive means mostly about 31% to 49%); details: MDR1-expressing cells, fluorescent substrate accumulation slope; hits give high values; concentration not given here

With `COc1nc(C)cnc1NS(=O)(=O)c1cccnc1-c1ccc(-c2nnco2)cc1` the outcome [1] was “inactive”, the outcome [2] was “inactive” and the outcome [3] was “inactive”. The AC50 [4] was inconclusive: 9.35 µM [cytotoxic], the outcome [5] was “inactive” and the outcome [6] was “inactive”.
With `C/C(O)=C(\C#N)C(=O)Nc1ccc(C(F)(F)F)cc1` the outcome [1] was “inactive”, the AC50 [2] was inconclusive: 23.5 µM [cytotoxic] and the AC50 [3] was inconclusive: 14.8 µM [cytotoxic]. For the same molecule, the outcome [4] was “inactive”.
With `CC(C(=O)O)c1ccc2c(c1)CC(=O)c1ccccc1S2` (configuration not stated) the outcome [1] was “inactive”, the AC50 [2] was active: 0.0059 µM and the AC50 [3] was inconclusive: 0.132 µM [cytotoxic]. The AC50 [4] was inconclusive: 0.235 µM [cytotoxic], the outcome [5] was “inactive” and the outcome [6] was “inactive”. The AC50 [7] was inconclusive: 0.296 µM [cytotoxic] and the AC50 [8] was inconclusive: 37.2 µM.
In the case of `CO[C@@H]1[C@H](N(C)C(=O)c2ccccc2)C[C@H]2O[C@]1(C)n1c3ccccc3c3c4c(c5c6ccccc6n2c5c31)C(=O)NC4`, the AC50 [1] was active: 1.66 µM, the AC50 [2] was inconclusive: 5.26 µM [cytotoxic] and the AC50 [3] was inconclusive: 1.48 µM [cytotoxic]. The AC50 [4] was inconclusive: 0.743 µM [cytotoxic], the AC50 [5] was inconclusive: 2.63 µM [cytotoxic] and the AC50 [6] was inconclusive: 1.05 µM [cytotoxic]. For the same molecule, the outcome [7] was “inactive”, the AC50 [8] was inconclusive: 1.32 µM [cytotoxic] and the IC50 [9] was inconclusive: 0.661 µM [cytotoxic].
In the case of `Nc1cccc(-c2cc3c(Oc4cccc(O)c4)ncnc3[nH]2)c1`, the AC50 [1] was active: 1.66 µM, the AC50 [2] was inconclusive: 14.8 µM [cytotoxic] and the AC50 [3] was inconclusive: 9.35 µM [cytotoxic]. The AC50 [4] was active: 11.8 µM, the AC50 [5] was active: 4.68 µM and the AC50 [6] was active: 5.25 µM. The AC50 [7] was inconclusive: 11.8 µM [cytotoxic], the AC50 [8] was inconclusive: 2.35 µM [cytotoxic] and the IC50 [9] was active: 8.33 µM.
In the case of `Clc1ccc(C(Cn2ccnc2)OCc2c(Cl)cccc2Cl)c(Cl)c1` (configuration not stated), the fluorescence slope change [10] was active: 107%, the AC50 [1] was active: 23.5 µM and the AC50 [2] was inconclusive: 37.2 µM [cytotoxic]. For the same molecule, the AC50 [3] was inconclusive: 37.2 µM [cytotoxic], the AC50 [4] was inconclusive: 23.5 µM [cytotoxic] and the AC50 [5] was active: 20.9 µM. The AC50 [6] was active: 23.5 µM, the AC50 [7] was inconclusive: 33.2 µM [cytotoxic] and the AC50 [8] was inconclusive: 26.3 µM [cytotoxic]. The IC50 [9] was inconclusive: 37.2 µM [cytotoxic].
For `O=C(c1ccc(OCCN2CCCCC2)cc1)c1c(-c2ccc(O)cc2)sc2cc(O)ccc12`, the fluorescence slope change [10] was active: 82.4%, the outcome [1] was “inactive” and the AC50 [2] was inconclusive: 0.148 µM [cytotoxic]. For the same molecule, the AC50 [3] was inconclusive: 29.6 µM [cytotoxic], the AC50 [4] was inconclusive: 18.7 µM [cytotoxic] and the AC50 [5] was inconclusive: 0.00105 µM. The AC50 [6] was inconclusive: 18.6 µM [cytotoxic], the AC50 [7] was inconclusive: 33.2 µM [cytotoxic] and the outcome [8] was “inactive”. For the same molecule, the IC50 [9] was inconclusive: 37.2 µM [cytotoxic].
In the case of `C=CCc1cccc(/C=N/NC(=O)CN2CCN(Cc3ccccc3)CC2)c1O`, the AC50 [1] was inconclusive: 0.00105 µM [cytotoxic], the AC50 [2] was inconclusive: 26.4 µM [cytotoxic] and the AC50 [3] was inconclusive: 14.8 µM [cytotoxic]. For the same molecule, the AC50 [4] was inconclusive: 37.2 µM [cytotoxic], the AC50 [5] was inconclusive: 37.2 µM [cytotoxic] and the AC50 [6] was inconclusive: 33.2 µM [cytotoxic]. The AC50 [7] was active: 16.6 µM, the AC50 [8] was inconclusive: 18.6 µM [cytotoxic] and the IC50 [9] was inconclusive: 23.5 µM [cytotoxic].
For `Oc1ccc(C2CCN(c3ccnc4ccccc34)CC2)cc1O`, the AC50 [1] was inconclusive: 18.6 µM [cytotoxic], the AC50 [2] was inconclusive: 9.35 µM [cytotoxic] and the AC50 [3] was inconclusive: 16.6 µM [cytotoxic]. For the same molecule, the AC50 [4] was inconclusive: 20.9 µM [cytotoxic], the AC50 [5] was active: 16.6 µM and the AC50 [6] was inconclusive: 18.6 µM [cytotoxic]. For the same molecule, the AC50 [7] was inconclusive: 23.5 µM [cytotoxic], the AC50 [8] was active: 20.9 µM and the IC50 [9] was inconclusive: 33.2 µM [cytotoxic].
For `CC(C)c1c(C(=O)Nc2ccccc2)c(-c2ccccc2)c(-c2ccc(F)cc2)n1CC[C@@H](O)C[C@@H](O)CC(=O)O`, the AC50 [1] was inconclusive: 1.29 µM [cytotoxic], the AC50 [2] was inconclusive: 20.9 µM [cytotoxic] and the AC50 [3] was inconclusive: 5.9 µM [cytotoxic]. The AC50 [4] was inconclusive: 16.6 µM [cytotoxic], the outcome [5] was “inactive” and the AC50 [6] was inconclusive: 8.11 µM [cytotoxic]. For the same molecule, the AC50 [7] was inconclusive: 8.33 µM [cytotoxic] and the AC50 [8] was inconclusive: 12.9 µM [cytotoxic].
